Measured data: PubChem BioAssay AID504764 (Drosophila RNAi Screening Center, 2011)
Screen: 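Genes whose knock-down alters Notch-dependent transcription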 (primary screen). System: Drosophila Kc167 cells. Knock-down reagent: long dsRNA against Drosophila genes. Time to read-out: about 5 days (4 days dsRNA, then 24 h after transfection). Conditions: transfection of constitutively active membrane-tethered Notch lacking the extracellular domain, read 24 h later. Measured: 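Light from a Notch-responsive E(spl)m3 luciferase reporter under active Notch, with control-promoter and no-Notch reporter wells to normalise; raw counts from paired wells a and b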. Scale: induced reporter light, run 1, well a and induced reporter light, run 1, well b: higher = more light from the Notch target reporter with active Notch; control promoter light, run 1, well a and control promoter light, run 1, well b: higher = more light from the viral control promoter (cell number, transfection, viability); uninduced reporter light, run 1, well a: higher = more light from the Notch target reporter without active Notch. Active means: 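Hit if the duplicate-averaged log2 ratio of induced to control-promoter light gives a plate-wise z beyond ±2, or induced to uninduced beyond ±1.8; weak-control or discordant-duplicate wells dropped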. Meaning of the calls: active = modifier hit (raised or lowered Notch signal); inactive = not a hit.
The screen tested about 22,000 reagents; below is a random part of those with a known target gene and a result. Of all reagents, 403 (1.9%) are marked active. 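Unnormalised raw counts per well; ratio z-scores behind the hit calls and whether each hit raises or lowers signal are not deposited.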 Names joined by + are all predicted targets of the reagent. The record does not give: the amount of reagent.

Ace (Acetylcholine esterase) [DRSC12959]
- induced reporter light, run 1, well a: 1.33e5
- induced reporter light, run 1, well b: 1.19e5
- control promoter light, run 1, well a: 1.19e5
- control promoter light, run 1, well b: 1.16e5
- uninduced reporter light, run 1, well a: 9825
- Outcome: inactive

Ace (Acetylcholine esterase) [DRSC14100]
- induced reporter light, run 1, well a: 1.50e5
- induced reporter light, run 1, well b: 1.39e5
- control promoter light, run 1, well a: 85195
- control promoter light, run 1, well b: 72525
- uninduced reporter light, run 1, well a: 8425
- Outcome: inactive

mge (maggie) [DRSC08721]
- induced reporter light, run 1, well a: 89210
- induced reporter light, run 1, well b: 1.07e5
- control promoter light, run 1, well a: 1.63e5
- control promoter light, run 1, well b: 1.38e5
- uninduced reporter light, run 1, well a: 5330
- Outcome: inactive

CG6329 [DRSC06976]
- induced reporter light, run 1, well a: 1.30e5
- induced reporter light, run 1, well b: 1.06e5
- control promoter light, run 1, well a: 1.16e5
- control promoter light, run 1, well b: 73585
- uninduced reporter light, run 1, well a: 10175
- Outcome: inactive

CR42546 (pseudo) [DRSC03711]
- induced reporter light, run 1, well a: 65310
- induced reporter light, run 1, well b: 51225
- control promoter light, run 1, well a: 58220
- control promoter light, run 1, well b: 84100
- uninduced reporter light, run 1, well a: 2365
- Outcome: inactive

CG31446 [DRSC13111]
- induced reporter light, run 1, well a: 1.06e5
- induced reporter light, run 1, well b: 92510
- control promoter light, run 1, well a: 1.47e5
- control promoter light, run 1, well b: 1.29e5
- uninduced reporter light, run 1, well a: 7960
- Outcome: inactive

Rtel1 (Regulator of telomere elongation helicase 1) [DRSC18343]
- induced reporter light, run 1, well a: 1.16e5
- induced reporter light, run 1, well b: 1.24e5
- control promoter light, run 1, well a: 2.50e5
- control promoter light, run 1, well b: 2.35e5
- uninduced reporter light, run 1, well a: 9932
- Outcome: inactive

2 of these entries, reformatted:
{"Target gene":"mge (maggie)","dsRNA":"DRSC08721","induced reporter light, run 1, well a":89210,"induced reporter light, run 1, well b":1.07e5,"control promoter light, run 1, well a":1.63e5,"control promoter light, run 1, well b":1.38e5,"uninduced reporter light, run 1, well a":5330,"Outcome":"inactive"}
{"Target gene":"CG6329","dsRNA":"DRSC06976","induced reporter light, run 1, well a":1.30e5,"induced reporter light, run 1, well b":1.06e5,"control promoter light, run 1, well a":1.16e5,"control promoter light, run 1, well b":73585,"uninduced reporter light, run 1, well a":10175,"Outcome":"inactive"}

Further results follow.
CG5377 [DRSC15783]
- induced reporter light, run 1, well a: 1.86e5
- induced reporter light, run 1, well b: 1.69e5
- control promoter light, run 1, well a: 2.06e5
- control promoter light, run 1, well b: 2.31e5
- uninduced reporter light, run 1, well a: 16292
- Outcome: inactive

CG34045 [DRSC05787]
- induced reporter light, run 1, well a: 1.32e5
- induced reporter light, run 1, well b: 99525
- control promoter light, run 1, well a: 1.87e5
- control promoter light, run 1, well b: 1.58e5
- uninduced reporter light, run 1, well a: 8740
- Outcome: inactive

Ino80 (INO80 complex subunit) [DRSC14760]
- induced reporter light, run 1, well a: 1.24e5
- induced reporter light, run 1, well b: 1.32e5
- control promoter light, run 1, well a: 1.69e5
- control promoter light, run 1, well b: 1.77e5
- uninduced reporter light, run 1, well a: 8605
- Outcome: inactive

Ino80 (INO80 complex subunit) [DRSC15333]
- induced reporter light, run 1, well a: 1.15e5
- induced reporter light, run 1, well b: 94170
- control promoter light, run 1, well a: 1.50e5
- control promoter light, run 1, well b: 1.50e5
- uninduced reporter light, run 1, well a: 8340
- Outcome: inactive

Ino80 (INO80 complex subunit) [DRSC15501]
- induced reporter light, run 1, well a: 1.35e5
- induced reporter light, run 1, well b: 1.21e5
- control promoter light, run 1, well a: 1.61e5
- control promoter light, run 1, well b: 2.04e5
- uninduced reporter light, run 1, well a: 10220
- Outcome: inactive

bbg (big bang) [DRSC11077]
- induced reporter light, run 1, well a: 2.26e5
- induced reporter light, run 1, well b: 2.09e5
- control promoter light, run 1, well a: 2.95e5
- control promoter light, run 1, well b: 2.41e5
- uninduced reporter light, run 1, well a: 4680
- Outcome: inactive

bbg (big bang) [DRSC11079]
- induced reporter light, run 1, well a: 1.70e5
- induced reporter light, run 1, well b: 1.60e5
- control promoter light, run 1, well a: 2.15e5
- control promoter light, run 1, well b: 1.53e5
- uninduced reporter light, run 1, well a: 6085
- Outcome: inactive

Slu7 [DRSC14729]
- induced reporter light, run 1, well a: 54800
- induced reporter light, run 1, well b: 40175
- control promoter light, run 1, well a: 62385
- control promoter light, run 1, well b: 78765
- uninduced reporter light, run 1, well a: 3465
- Outcome: inactive

Taz (Tafazzin) [DRSC07704]
- induced reporter light, run 1, well a: 1.24e5
- induced reporter light, run 1, well b: 1.37e5
- control promoter light, run 1, well a: 1.52e5
- control promoter light, run 1, well b: 1.37e5
- uninduced reporter light, run 1, well a: 9755
- Outcome: inactive

CG42824 + CG42823 [DRSC13230]
- induced reporter light, run 1, well a: 53250
- induced reporter light, run 1, well b: 54345
- control promoter light, run 1, well a: 70230
- control promoter light, run 1, well b: 81980
- uninduced reporter light, run 1, well a: 7895
- Outcome: inactive

CG32391 [DRSC08865]
- induced reporter light, run 1, well a: 1.81e5
- induced reporter light, run 1, well b: 2.02e5
- control promoter light, run 1, well a: 2.30e5
- control promoter light, run 1, well b: 2.19e5
- uninduced reporter light, run 1, well a: 14260
- Outcome: inactive
